PubChem BioAssay AID743121 – NCATS, 2013
The deposit covers about 26,000 reagents; shown is a random part of them. 167 of all reagents (0.63%) count as active. 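Calls are per gene from RSA p-values that are not deposited; an individual active-marked siRNA can sensitise only weakly.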 A number with no mark means an inactive call. Reagents against one gene are numbered here.

Test: 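Genes whose silencing strengthens cell killing by camptothecin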 (primary screen)
Cells: MDA-MB-231 cells, a human breast cancer line
Reagent: single siRNA against human genes, 20 nM siRNA (0.8 pmol per well)
Timing: 120 h (drug added 48 h after transfection, read 72 h later)
Treatment: camptothecin 20 nM (about EC30) for 72 h; vehicle 0.1% DMSO in parallel plates
Measurement: 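Cell viability by ATP luminescence (CellTiter-Glo) as % of non-targeting siRNA wells, and the log2 ratio of viability without drug over viability with camptothecin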
Direction: log2 vehicle/camptothecin viability: higher = stronger sensitisation to camptothecin; viability with camptothecin and viability without drug: higher = more viable cells
Active means: 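Each gene scored by redundant siRNA activity (RSA) over its individual siRNA ratios; a gene is called active at p < 0.001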

| Gene | reagent | log2 vehicle/camptothecin viability | viability with camptothecin (% of control) | viability without drug (% of control) |
| --- | --- | --- | --- | --- |
| CASP16P (caspase 16, pseudogene) | 1 | -0.0949 | 85.1 | 79.7 |
| CASP16P (caspase 16, pseudogene) | 2 | -0.497 | 86.1 | 61 |
| CASP16P (caspase 16, pseudogene) | 3 | -0.308 | 59.7 | 48.3 |
| CASP16P (caspase 16, pseudogene) | 4 | -0.24 | 54.2 | 45.9 |
| KREMEN2 (kringle containing transmembrane protein 2) | 1 | -0.593 | 99.8 | 66.2 |
| KREMEN2 (kringle containing transmembrane protein 2) | 2 | -0.203 | 63.7 | 55.3 |
| KREMEN2 (kringle containing transmembrane protein 2) | 3 | 0.424 | 72.3 | 97 |
| SSR1 (signal sequence receptor subunit 1) | 1 | 0.578 | 54.2 | 80.9 |
| SSR1 (signal sequence receptor subunit 1) | 2 | -0.544 | 84.7 | 58.1 |
| SSR1 (signal sequence receptor subunit 1) | 3 | -0.169 | 89 | 79.1 |
| SSR1 (signal sequence receptor subunit 1) | 4 | -0.371 | 108 | 83.1 |
| ROBO1 (roundabout guidance receptor 1) | 1 | -0.171 | 102 | 90.8 |
| ROBO1 (roundabout guidance receptor 1) | 2 | -0.474 | 93.2 | 67.1 |
| ROBO1 (roundabout guidance receptor 1) | 3 | -0.121 | 85.5 | 78.6 |
| ROBO1 (roundabout guidance receptor 1) | 4 | 0.258 | 60.5 | 72.4 |
| IL18 (interleukin 18) | 1 | 0.289 | 69.4 | 84.8 |
| IL18 (interleukin 18) | 2 | -0.322 | 85.3 | 68.2 |
| IL18 (interleukin 18) | 3 | 0.0371 | 91.5 | 93.9 |
| PPP1R12A (protein phosphatase 1 regulatory subunit 12A) | 1 | -0.22 | 74.5 | 64 |
| PPP1R12A (protein phosphatase 1 regulatory subunit 12A) | 2 | -0.286 | 76.2 | 62.5 |
| PPP1R12A (protein phosphatase 1 regulatory subunit 12A) | 3 | 0.0123 | 50.5 | 50.9 |
| PPP1R12A (protein phosphatase 1 regulatory subunit 12A) | 4 | -0.259 | 90.7 | 75.8 |
| PPP1R12B (protein phosphatase 1 regulatory subunit 12B) | 1 | -0.569 | 64.1 | 43.2 |
| PPP1R12B (protein phosphatase 1 regulatory subunit 12B) | 2 | -0.467 | 75.8 | 54.8 |
| PPP1R12B (protein phosphatase 1 regulatory subunit 12B) | 3 | -0.197 | 109 | 95.4 |
| PPP1R12B (protein phosphatase 1 regulatory subunit 12B) | 4 | 0.514 | 28.6 | 40.8 |
| CDC42SE2 (CDC42 small effector 2) | 1 | -0.625 | 87.4 | 56.7 |
| CDC42SE2 (CDC42 small effector 2) | 2 | 0.399 | 47.1 | 62.2 |
| CDC42SE2 (CDC42 small effector 2) | 3 | -0.514 | 86.2 | 60.4 |
| CDC42SE2 (CDC42 small effector 2) | 4 | -0.162 | 97.6 | 87.3 |
| CXXC4 (CXXC finger protein 4) | 1 | -0.0933 | 111 | 104 |
| CXXC4 (CXXC finger protein 4) | 2 | -0.472 | 91 | 65.6 |
| CXXC4 (CXXC finger protein 4) | 3 | 0.199 | 69.6 | 79.9 |
| CXXC4 (CXXC finger protein 4) | 4 | -0.428 | 24.6 | 18.3 |
| HTR3E (5-hydroxytryptamine receptor 3E) | 1 | -0.416 | 58.3 | 43.7 |
| HTR3E (5-hydroxytryptamine receptor 3E) | 2 | 0.329 | 69.7 | 87.5 |
| HTR3E (5-hydroxytryptamine receptor 3E) | 3 | 0.0668 | 97.5 | 102 |
| HTR3E (5-hydroxytryptamine receptor 3E) | 4 | -0.547 | 75.5 | 51.7 |
| CNTF (ciliary neurotrophic factor) | 1 | -0.223 | 102 | 87.7 |
| CNTF (ciliary neurotrophic factor) | 2 | -0.153 | 99 | 89 |
| CNTF (ciliary neurotrophic factor) | 3 | -0.136 | 100 | 91 |
| CNTF (ciliary neurotrophic factor) | 4 | -0.0893 | 49.7 | 46.8 |
| POLR1C (RNA polymerase I and III subunit C) | 1 | 0.451 | 44 | 60.2 |
| POLR1C (RNA polymerase I and III subunit C) | 2 | 0.189 | 82.1 | 93.6 |
| POLR1C (RNA polymerase I and III subunit C) | 3 | -0.32 | 64 | 51.3 |
| MX1 (MX dynamin like GTPase 1) | 1 | -0.308 | 67.8 | 54.8 |
| MX1 (MX dynamin like GTPase 1) | 2 | -0.106 | 95 | 88.2 |
| MX1 (MX dynamin like GTPase 1) | 3 | 0.158 | 41.3 | 46 |
| MX1 (MX dynamin like GTPase 1) | 4 | 0.0761 | 79.1 | 83.3 |
| GPR152 (G protein-coupled receptor 152) | 1 | -0.212 | 71.3 | 61.6 |
| GPR152 (G protein-coupled receptor 152) | 2 | 0.181 | 63.4 | 71.8 |
| GPR152 (G protein-coupled receptor 152) | 3 | -0.473 | 37.6 | 27.1 |
| GPR152 (G protein-coupled receptor 152) | 4 | -0.166 | 53.7 | 47.8 |
| FOLR1 (folate receptor alpha) | 1 | 0.17 | 27.7 | 31.2 |
| FOLR1 (folate receptor alpha) | 2 | -0.0323 | 86.9 | 85 |
| FOLR1 (folate receptor alpha) | 3 | 0.246 | 60.6 | 71.9 |
| FOLR1 (folate receptor alpha) | 4 | 0.125 | 73.4 | 80 |
| CAPN7 (calpain 7) | 1 | 0.0412 | 94.2 | 96.9 |
| CAPN7 (calpain 7) | 2 | -0.455 | 72.4 | 52.8 |
| CAPN7 (calpain 7) | 3 | -0.231 | 96.8 | 82.5 |
| CAPN7 (calpain 7) | 4 | -0.0514 | 98.5 | 95 |
| MUC6 (mucin 6, oligomeric mucus/gel-forming (gene/pseudogene)) | 1 | 0.474 | 63.8 | 88.6 |
| MUC6 (mucin 6, oligomeric mucus/gel-forming (gene/pseudogene)) | 2 | -0.131 | 91.8 | 83.8 |
| MUC6 (mucin 6, oligomeric mucus/gel-forming (gene/pseudogene)) | 3 | 0.42 | 34.8 | 46.6 |
| MUC6 (mucin 6, oligomeric mucus/gel-forming (gene/pseudogene)) | 4 | 0.554 | 17 | 24.9 |
| MUC6 (mucin 6, oligomeric mucus/gel-forming (gene/pseudogene)) | 5 | -0.205 | 74.4 | 64.6 |
| MUC6 (mucin 6, oligomeric mucus/gel-forming (gene/pseudogene)) | 6 | -0.522 | 95.8 | 66.7 |
| MUC6 (mucin 6, oligomeric mucus/gel-forming (gene/pseudogene)) | 7 | -0.21 | 104 | 89.7 |
| MUC6 (mucin 6, oligomeric mucus/gel-forming (gene/pseudogene)) | 8 | -0.199 | 90.4 | 78.8 |

Targets above whose target name begins with M or m (12):
| Gene | reagent | log2 vehicle/camptothecin viability | viability with camptothecin (% of control) | viability without drug (% of control) |
| --- | --- | --- | --- | --- |
| MX1 (MX dynamin like GTPase 1) | 1 | -0.308 | 67.8 | 54.8 |
| MX1 (MX dynamin like GTPase 1) | 2 | -0.106 | 95 | 88.2 |
| MX1 (MX dynamin like GTPase 1) | 3 | 0.158 | 41.3 | 46 |
| MX1 (MX dynamin like GTPase 1) | 4 | 0.0761 | 79.1 | 83.3 |
| MUC6 (mucin 6, oligomeric mucus/gel-forming (gene/pseudogene)) | 1 | 0.474 | 63.8 | 88.6 |
| MUC6 (mucin 6, oligomeric mucus/gel-forming (gene/pseudogene)) | 2 | -0.131 | 91.8 | 83.8 |
| MUC6 (mucin 6, oligomeric mucus/gel-forming (gene/pseudogene)) | 3 | 0.42 | 34.8 | 46.6 |
| MUC6 (mucin 6, oligomeric mucus/gel-forming (gene/pseudogene)) | 4 | 0.554 | 17 | 24.9 |
| MUC6 (mucin 6, oligomeric mucus/gel-forming (gene/pseudogene)) | 5 | -0.205 | 74.4 | 64.6 |
| MUC6 (mucin 6, oligomeric mucus/gel-forming (gene/pseudogene)) | 6 | -0.522 | 95.8 | 66.7 |
| MUC6 (mucin 6, oligomeric mucus/gel-forming (gene/pseudogene)) | 7 | -0.21 | 104 | 89.7 |
| MUC6 (mucin 6, oligomeric mucus/gel-forming (gene/pseudogene)) | 8 | -0.199 | 90.4 | 78.8 |
